Experimental data taken from the supplement of paper PMC10849652.
The other results are listed elsewhere or left out.

Chains of the proteins cited; added tags and fusions are not shown. Lines headed by an entry give the natural chain unless they say otherwise; changes in a name come on top.
UniProt Q9UK41: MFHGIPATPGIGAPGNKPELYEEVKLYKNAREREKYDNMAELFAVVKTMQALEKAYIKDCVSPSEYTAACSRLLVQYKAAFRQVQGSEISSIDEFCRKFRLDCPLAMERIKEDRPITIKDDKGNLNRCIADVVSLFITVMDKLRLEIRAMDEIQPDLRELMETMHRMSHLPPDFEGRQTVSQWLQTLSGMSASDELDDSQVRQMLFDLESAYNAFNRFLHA
UniProt Q6P4I2: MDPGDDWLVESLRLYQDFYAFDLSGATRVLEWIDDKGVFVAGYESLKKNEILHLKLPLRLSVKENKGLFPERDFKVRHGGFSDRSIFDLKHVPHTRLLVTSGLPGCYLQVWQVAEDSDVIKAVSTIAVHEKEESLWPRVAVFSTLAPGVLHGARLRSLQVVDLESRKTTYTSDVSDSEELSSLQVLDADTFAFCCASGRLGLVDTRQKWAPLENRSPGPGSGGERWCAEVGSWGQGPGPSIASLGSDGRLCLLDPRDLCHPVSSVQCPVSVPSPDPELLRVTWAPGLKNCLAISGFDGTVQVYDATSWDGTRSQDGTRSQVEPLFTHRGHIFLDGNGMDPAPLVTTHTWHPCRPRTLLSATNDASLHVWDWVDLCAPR
UniProt Q9P253: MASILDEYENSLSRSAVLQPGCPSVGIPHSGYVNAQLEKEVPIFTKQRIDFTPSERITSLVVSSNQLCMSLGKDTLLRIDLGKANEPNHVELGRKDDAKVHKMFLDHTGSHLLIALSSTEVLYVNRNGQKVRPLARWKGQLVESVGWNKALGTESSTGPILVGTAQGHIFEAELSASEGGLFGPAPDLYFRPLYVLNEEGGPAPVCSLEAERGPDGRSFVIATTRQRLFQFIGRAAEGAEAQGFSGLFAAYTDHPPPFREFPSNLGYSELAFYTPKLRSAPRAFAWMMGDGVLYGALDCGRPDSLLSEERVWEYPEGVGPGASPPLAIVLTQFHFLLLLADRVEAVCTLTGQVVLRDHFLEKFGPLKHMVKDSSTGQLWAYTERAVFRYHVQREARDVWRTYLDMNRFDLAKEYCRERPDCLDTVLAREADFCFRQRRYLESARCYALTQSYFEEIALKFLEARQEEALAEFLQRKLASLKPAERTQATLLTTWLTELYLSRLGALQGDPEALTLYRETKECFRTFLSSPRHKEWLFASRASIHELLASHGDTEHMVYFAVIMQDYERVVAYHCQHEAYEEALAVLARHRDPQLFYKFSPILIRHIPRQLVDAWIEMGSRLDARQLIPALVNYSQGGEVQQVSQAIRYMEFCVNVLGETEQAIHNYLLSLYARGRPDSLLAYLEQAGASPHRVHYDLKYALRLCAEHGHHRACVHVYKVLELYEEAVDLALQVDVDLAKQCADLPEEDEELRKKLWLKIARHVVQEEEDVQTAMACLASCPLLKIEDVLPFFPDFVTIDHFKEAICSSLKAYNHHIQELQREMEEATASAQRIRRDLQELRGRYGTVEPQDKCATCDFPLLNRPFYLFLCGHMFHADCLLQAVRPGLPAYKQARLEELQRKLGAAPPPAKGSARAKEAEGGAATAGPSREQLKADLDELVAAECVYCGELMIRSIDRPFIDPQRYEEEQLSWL
UniProt P08670, whole entry, looked up: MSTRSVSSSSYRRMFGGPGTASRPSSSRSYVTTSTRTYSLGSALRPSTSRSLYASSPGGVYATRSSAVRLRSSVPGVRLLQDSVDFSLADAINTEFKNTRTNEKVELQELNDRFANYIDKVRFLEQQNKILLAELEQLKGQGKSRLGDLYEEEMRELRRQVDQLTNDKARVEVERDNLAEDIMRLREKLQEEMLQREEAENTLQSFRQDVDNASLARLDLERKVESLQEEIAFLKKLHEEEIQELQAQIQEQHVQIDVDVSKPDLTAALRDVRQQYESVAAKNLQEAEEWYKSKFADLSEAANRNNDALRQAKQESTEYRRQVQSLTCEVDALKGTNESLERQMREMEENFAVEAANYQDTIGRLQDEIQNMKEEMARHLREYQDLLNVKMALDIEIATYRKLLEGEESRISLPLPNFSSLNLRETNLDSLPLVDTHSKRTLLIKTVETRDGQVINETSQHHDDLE
UniProt Q8TBZ3: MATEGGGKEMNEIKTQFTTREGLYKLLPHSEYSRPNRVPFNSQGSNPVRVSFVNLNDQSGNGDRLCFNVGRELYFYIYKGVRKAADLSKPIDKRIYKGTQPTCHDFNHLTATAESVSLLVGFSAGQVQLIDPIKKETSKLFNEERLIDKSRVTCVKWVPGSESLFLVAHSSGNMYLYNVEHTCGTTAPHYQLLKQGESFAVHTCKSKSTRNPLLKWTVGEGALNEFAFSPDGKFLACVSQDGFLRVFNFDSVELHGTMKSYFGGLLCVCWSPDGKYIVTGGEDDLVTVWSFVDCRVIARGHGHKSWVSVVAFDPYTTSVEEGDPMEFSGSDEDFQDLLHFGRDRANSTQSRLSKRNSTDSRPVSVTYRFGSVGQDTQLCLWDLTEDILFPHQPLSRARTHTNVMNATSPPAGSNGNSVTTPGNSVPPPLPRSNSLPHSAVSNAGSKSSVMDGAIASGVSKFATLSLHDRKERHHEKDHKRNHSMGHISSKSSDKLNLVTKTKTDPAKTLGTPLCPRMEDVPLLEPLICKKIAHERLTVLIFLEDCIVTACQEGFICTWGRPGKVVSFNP
UniProt P98170, whole entry, looked up: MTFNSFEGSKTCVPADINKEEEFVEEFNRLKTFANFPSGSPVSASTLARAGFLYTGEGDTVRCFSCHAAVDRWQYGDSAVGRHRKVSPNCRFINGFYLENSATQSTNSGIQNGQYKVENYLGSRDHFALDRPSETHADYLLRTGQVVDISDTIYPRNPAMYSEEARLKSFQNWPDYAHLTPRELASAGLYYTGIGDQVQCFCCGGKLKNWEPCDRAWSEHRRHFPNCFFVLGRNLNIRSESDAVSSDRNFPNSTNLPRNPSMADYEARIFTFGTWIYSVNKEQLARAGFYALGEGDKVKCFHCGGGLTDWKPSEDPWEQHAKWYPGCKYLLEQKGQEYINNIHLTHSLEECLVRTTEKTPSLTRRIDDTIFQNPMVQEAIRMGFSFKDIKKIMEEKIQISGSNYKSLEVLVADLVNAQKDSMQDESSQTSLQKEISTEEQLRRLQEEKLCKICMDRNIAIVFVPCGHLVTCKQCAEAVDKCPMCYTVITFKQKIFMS
UniProt Q9NRW7: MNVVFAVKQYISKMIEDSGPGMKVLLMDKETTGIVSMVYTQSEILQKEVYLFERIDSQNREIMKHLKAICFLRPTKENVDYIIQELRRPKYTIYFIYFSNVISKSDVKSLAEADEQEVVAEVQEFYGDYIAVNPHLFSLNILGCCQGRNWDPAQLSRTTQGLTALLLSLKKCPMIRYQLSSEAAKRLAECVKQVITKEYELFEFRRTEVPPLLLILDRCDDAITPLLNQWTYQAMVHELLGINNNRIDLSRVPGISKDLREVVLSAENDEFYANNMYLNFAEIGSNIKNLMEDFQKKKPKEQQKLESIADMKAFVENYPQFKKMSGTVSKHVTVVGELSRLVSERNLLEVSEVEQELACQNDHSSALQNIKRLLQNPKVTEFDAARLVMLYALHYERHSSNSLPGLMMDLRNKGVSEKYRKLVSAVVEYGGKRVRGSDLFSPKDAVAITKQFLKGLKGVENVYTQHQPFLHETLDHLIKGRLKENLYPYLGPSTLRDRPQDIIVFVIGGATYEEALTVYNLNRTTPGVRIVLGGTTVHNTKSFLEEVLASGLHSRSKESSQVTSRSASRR
UniProt O00401, whole entry, looked up: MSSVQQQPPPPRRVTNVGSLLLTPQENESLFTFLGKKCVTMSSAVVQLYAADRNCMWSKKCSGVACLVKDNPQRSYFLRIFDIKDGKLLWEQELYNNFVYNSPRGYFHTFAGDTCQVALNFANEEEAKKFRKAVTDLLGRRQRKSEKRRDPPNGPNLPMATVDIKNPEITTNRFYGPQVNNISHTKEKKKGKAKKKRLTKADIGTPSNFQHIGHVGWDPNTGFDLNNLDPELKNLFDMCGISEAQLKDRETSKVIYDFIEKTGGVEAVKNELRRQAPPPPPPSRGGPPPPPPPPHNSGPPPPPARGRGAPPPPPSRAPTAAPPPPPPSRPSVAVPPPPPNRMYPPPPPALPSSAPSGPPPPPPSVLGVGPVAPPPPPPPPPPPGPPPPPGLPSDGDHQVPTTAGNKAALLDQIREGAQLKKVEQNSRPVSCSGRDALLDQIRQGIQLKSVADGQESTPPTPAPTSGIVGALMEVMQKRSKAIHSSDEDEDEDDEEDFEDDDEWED
UniProt Q9Y2W2: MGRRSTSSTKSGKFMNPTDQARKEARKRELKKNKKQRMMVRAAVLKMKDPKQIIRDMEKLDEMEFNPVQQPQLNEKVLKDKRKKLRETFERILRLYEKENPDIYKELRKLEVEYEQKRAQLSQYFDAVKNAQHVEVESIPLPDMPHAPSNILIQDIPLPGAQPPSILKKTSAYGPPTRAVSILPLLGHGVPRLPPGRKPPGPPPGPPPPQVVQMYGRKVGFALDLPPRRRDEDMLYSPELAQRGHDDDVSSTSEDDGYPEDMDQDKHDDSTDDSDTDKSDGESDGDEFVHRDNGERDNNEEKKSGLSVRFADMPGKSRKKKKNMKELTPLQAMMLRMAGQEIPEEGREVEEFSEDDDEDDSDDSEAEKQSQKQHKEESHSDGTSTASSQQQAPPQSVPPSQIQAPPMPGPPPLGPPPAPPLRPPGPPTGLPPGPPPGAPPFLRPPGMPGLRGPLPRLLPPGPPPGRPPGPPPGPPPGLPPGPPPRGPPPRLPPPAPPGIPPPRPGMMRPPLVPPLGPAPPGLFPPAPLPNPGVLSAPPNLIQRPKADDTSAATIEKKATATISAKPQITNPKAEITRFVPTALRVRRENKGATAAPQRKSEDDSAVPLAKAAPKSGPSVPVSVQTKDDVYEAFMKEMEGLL
UniProt Q9Y6W5, whole entry, looked up: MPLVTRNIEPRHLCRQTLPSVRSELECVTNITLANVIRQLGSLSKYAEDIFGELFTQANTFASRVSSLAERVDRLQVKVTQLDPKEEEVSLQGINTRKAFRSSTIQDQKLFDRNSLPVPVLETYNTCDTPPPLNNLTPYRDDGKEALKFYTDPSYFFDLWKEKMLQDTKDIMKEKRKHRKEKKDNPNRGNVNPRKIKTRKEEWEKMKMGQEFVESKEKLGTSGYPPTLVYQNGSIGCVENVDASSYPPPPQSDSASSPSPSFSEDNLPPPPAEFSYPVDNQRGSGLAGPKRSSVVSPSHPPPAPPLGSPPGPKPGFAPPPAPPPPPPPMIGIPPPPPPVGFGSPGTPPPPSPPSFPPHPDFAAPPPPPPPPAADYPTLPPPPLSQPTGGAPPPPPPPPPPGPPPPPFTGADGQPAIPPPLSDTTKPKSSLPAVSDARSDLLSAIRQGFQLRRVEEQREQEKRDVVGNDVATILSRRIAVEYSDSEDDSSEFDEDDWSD
UniProt Q9H6Y2: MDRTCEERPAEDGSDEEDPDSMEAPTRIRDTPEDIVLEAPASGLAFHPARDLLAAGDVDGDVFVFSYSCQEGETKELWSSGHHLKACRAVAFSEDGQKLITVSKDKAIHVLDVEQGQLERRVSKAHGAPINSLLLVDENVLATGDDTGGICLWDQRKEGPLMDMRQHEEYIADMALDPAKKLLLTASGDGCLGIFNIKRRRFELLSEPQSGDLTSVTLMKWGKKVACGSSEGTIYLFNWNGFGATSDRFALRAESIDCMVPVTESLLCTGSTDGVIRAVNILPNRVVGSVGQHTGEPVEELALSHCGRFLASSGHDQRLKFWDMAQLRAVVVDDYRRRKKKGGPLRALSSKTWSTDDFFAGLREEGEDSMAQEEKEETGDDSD
UniProt O00258: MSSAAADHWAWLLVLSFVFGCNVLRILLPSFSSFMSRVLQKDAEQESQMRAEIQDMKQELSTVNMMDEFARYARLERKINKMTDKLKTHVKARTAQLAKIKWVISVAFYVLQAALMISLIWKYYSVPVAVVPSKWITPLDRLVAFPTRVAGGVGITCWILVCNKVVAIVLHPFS
UniProt Q9Y3C0: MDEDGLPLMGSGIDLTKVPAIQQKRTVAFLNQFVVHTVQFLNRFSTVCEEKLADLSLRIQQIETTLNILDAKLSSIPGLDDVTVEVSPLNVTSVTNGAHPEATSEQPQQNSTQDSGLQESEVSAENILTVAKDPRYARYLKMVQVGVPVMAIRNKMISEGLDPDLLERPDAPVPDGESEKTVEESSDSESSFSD

Assays:
Test in all cases: log2 fold change, soluble protein after heating vs DMSO (PISA); higher = thermal stabilisation; K562 cells, 10 uM, 30 min; active = over 0.2 and 3.5 SD of the protein, either way, in both replicates (recomputed)
[1] = compound: NC(=O)Nc1cc(-c2cccc(F)c2)sc1C(=O)N[C@H]1CCCNC1
Method in brief: (§1)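 K562 cells at 2×10^6 cells/mL were treated with 10 μM compound for 30 min. Aliquots were heated for 3 min across 48°C-58°C, pooled, and extracted in PBS with 0.5% NP-40 at 4°C; soluble protein was the supernatant after 21,000xg for 90 min. Soluble protein was quantified by TMTpro 16plex LC-MS/MS with channel sums equalised, and reported as log2 fold change in thermal stability against DMSO controls, with values from duplicates.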

[2] = compound: NC(=O)c1cnc(N[C@@H]2CCCC[C@@H]2N)nc1Nc1cccc(-n2nccn2)c1
Method in brief: as §1

[3] = compound: NC1(c2ccc(-c3nc4ccn5c(=O)[nH]nc5c4cc3-c3ccccc3)cc2)CCC1
Method in brief: as §1

[4] = compound: NCC(=O)Nc1ccc(-n2nc(C(F)(F)F)cc2-c2ccc3c(ccc4ccccc43)c2)cc1
Method in brief: as §1

entinostat = compound: Nc1ccccc1NC(=O)c1ccc(CNC(=O)OCc2cccnc2)cc1 [entinostat]
Method in brief: as §1

vorinostat = compound: O=C(CCCCCCC(=O)Nc1ccccc1)NO [vorinostat]
Method in brief: as §1

citarinostat = compound: O=C(CCCCCCNC(=O)c1cnc(N(c2ccccc2)c2ccccc2Cl)nc1)NO [citarinostat]
Method in brief: as §1

silmitasertib = compound: O=C(O)c1ccc2c(c1)nc(Nc1cccc(Cl)c1)c1ccncc12 [silmitasertib]
Method in brief: as §1

[5] = compound: O=C1NC(=O)C(c2cnc3ccccn23)=C1c1cn2c3c(cc(F)cc13)CN(C(=O)N1CCCCC1)CC2
Method in brief: as §1

[6] = compound: c1cc(OCCN2CCCCC2)cc(-c2n[nH]c3ccc(-c4nnc[nH]4)cc23)c1
Method in brief: as §1

Measured: log2 fold change

VPS28 (UniProt Q9UK41)
inactive: [1] -0.059 | [2] -0.079 | [3] -0.177 | [4] -0.055 | entinostat 0.064 | vorinostat 0.052 | citarinostat 0.122 | silmitasertib 0.058 | [5] -0.001 | [6] -0.012

WDR26, A0A499FIZ0
inactive: [1] -0.043 | [2] 0.006 | [3] -0.128 | [4] -0.011 | entinostat 0.004 | vorinostat -0.031 | citarinostat -0.005 | silmitasertib 0.081 | [5] -0.027 | [6] -0.029

VPS26A (UniProt O75436)
inactive: [1] 0.002 | [2] -0.154 | [3] -0.127 | [4] -0.075 | entinostat 0.015 | vorinostat 0.041 | citarinostat 0.07 | silmitasertib 0 | [5] -0.018 | [6] -0.028

WDR48 (UniProt Q8TAF3)
inactive: [1] -0.004 | [2] -0.017 | [3] 0.009 | [4] 0.01 | entinostat -0.006 | vorinostat -0.024 | citarinostat 0.023 | silmitasertib 0.01 | [5] -0.021 | [6] -0.036

WDR73 (UniProt Q6P4I2)
inactive: [1] -0.001 | [2] -0.047 | [3] -0.074 | [4] -0.038 | entinostat -0.011 | vorinostat -0.041 | citarinostat 0.022 | silmitasertib 0.003 | [5] -0.061 | [6] 0.027

VPS26C (UniProt O14972)
inactive: [1] -0.063 | [2] 0.028 | [3] -0.085 | [4] -0.123 | entinostat 0.058 | vorinostat 0.141 | citarinostat 0.111 | silmitasertib 0.031 | [5] 0.023 | [6] -0.019

WDR11 (UniProt Q9BZH6)
inactive: [1] 0.039 | [2] -0.164 | [3] -0.087 | [4] -0.192 | entinostat -0.024 | vorinostat -0.007 | citarinostat -0.067 | silmitasertib -0.025 | [5] -0.016 | [6] -0.036

VPS18 (UniProt Q9P253)
inactive: [1] 0.019 | [2] -0.13 | [3] -0.216 | [4] 0.079 | entinostat 0.08 | vorinostat 0.089 | citarinostat 0.009 | silmitasertib 0.005 | [5] 0.023 | [6] 0.005

WDR45B (UniProt Q5MNZ6)
inactive: [1] 0.169 | [2] -0.053 | [3] -0.094 | [4] -0.008 | entinostat 0.012 | vorinostat -0.006 | citarinostat 0.028 | silmitasertib 0.027 | [5] 0 | [6] 0.001

VPS29 isoform 2 (UniProt Q9UBQ0)
inactive: [1] -0.016 | [2] 0 | [3] -0.05 | [4] -0.131 | entinostat 0.021 | vorinostat -0.011 | citarinostat 0.026 | silmitasertib -0.032 | [5] -0.042 | [6] -0.046

WASHC2C, A0A096LPC5
inactive: [1] -0.084 | [2] -0.208 | [3] -0.06 | [4] -0.058 | entinostat -0.015 | vorinostat -0.209 | citarinostat -0.113 | silmitasertib 0.361 | [5] 0.001 | [6] -0.151

VPS33A (UniProt Q96AX1)
inactive: [1] 0.012 | [2] -0.121 | [3] -0.191 | [4] -0.084 | entinostat 0.05 | vorinostat 0.051 | citarinostat 0.063 | silmitasertib 0.019 | [5] 0.029 | [6] -0.059

2 records picked at random from those above:
WDR73 (UniProt Q6P4I2)
inactive: [1] -0.001 | [2] -0.047 | [3] -0.074 | [4] -0.038 | entinostat -0.011 | vorinostat -0.041 | citarinostat 0.022 | silmitasertib 0.003 | [5] -0.061 | [6] 0.027

WASHC2C, A0A096LPC5
inactive: [1] -0.084 | [2] -0.208 | [3] -0.06 | [4] -0.058 | entinostat -0.015 | vorinostat -0.209 | citarinostat -0.113 | silmitasertib 0.361 | [5] 0.001 | [6] -0.151

More records.

VIM (UniProt P08670)
inactive: [1] -0.036 | [2] -0.099 | [3] -0.106 | [4] 0.146 | entinostat -0.02 | vorinostat -0.103 | citarinostat -0.084 | silmitasertib 0.092 | [5] 0.099 | [6] -0.249

WDR20 isoform 7 (UniProt Q8TBZ3)
inactive: [1] -0.085 | [2] -0.136 | [3] 0.025 | [4] 0.046 | entinostat 0.038 | vorinostat 0.036 | citarinostat -0.016 | silmitasertib 0.151 | [5] 0.044 | [6] -0.117

XIAP (UniProt P98170)
inactive: [1] -0.004 | [2] -0.12 | [3] -0.113 | [4] -0.001 | entinostat 0.009 | vorinostat 0.053 | citarinostat 0.091 | silmitasertib -0.029 | [5] -0.047 | [6] -0.106

VPS13C (UniProt Q709C8)
inactive: [1] -0.031 | [2] -0.077 | [3] -0.191 | [4] -0.056 | entinostat -0.016 | vorinostat 0 | citarinostat 0.007 | silmitasertib 0.012 | [5] -0.003 | [6] 0.001

VPS45 (UniProt Q9NRW7)
inactive: [1] -0.041 | [2] 0.029 | [3] -0.2 | [4] -0.101 | entinostat -0.011 | vorinostat 0.036 | citarinostat 0.07 | silmitasertib 0.008 | [5] 0.007 | [6] -0.085

VDAC2 (UniProt P45880)
inactive: [1] 0.001 | [2] -0.031 | [3] -0.017 | [4] -0.025 | entinostat -0.004 | vorinostat -0.027 | citarinostat 0.03 | silmitasertib -0.03 | [5] -0.033 | [6] -0.03

WASL (UniProt O00401)
inactive: [1] -0.015 | [2] -0.097 | [3] -0.06 | [4] 0.043 | entinostat 0.069 | vorinostat 0.048 | citarinostat -0.021 | silmitasertib 0.06 | [5] -0.126 | [6] 0.028

WBP11 (UniProt Q9Y2W2)
inactive: [1] -0.012 | [2] -0.02 | [3] 0.046 | [4] -0.007 | entinostat -0.047 | vorinostat 0 | citarinostat 0.003 | silmitasertib -0.029 | [5] 0.005 | [6] -0.019

VPS37B (UniProt Q9H9H4)
inactive: [1] 0 | [2] 0.086 | [3] -0.098 | [4] 0.002 | entinostat 0.085 | vorinostat -0.016 | citarinostat 0.046 | silmitasertib -0.032 | [5] -0.091 | [6] -0.094

WASF2 (UniProt Q9Y6W5)
inactive: [1] -0.027 | [2] 0.028 | [3] -0.041 | [4] -0.029 | entinostat -0.007 | vorinostat -0.014 | citarinostat 0.039 | silmitasertib 0.006 | [5] 0.085 | [6] -0.024

WDR55 (UniProt Q9H6Y2)
inactive: [1] -0.047 | [2] -0.055 | [3] -0.019 | [4] 0.008 | entinostat -0.049 | vorinostat -0.018 | citarinostat 0.005 | silmitasertib 0.013 | [5] -0.034 | [6] -0.021

VMP1 (UniProt Q96GC9)
inactive: [1] 0.106 | [2] -0.026 | [3] -0.004 | [4] 0.057 | entinostat -0.019 | vorinostat -0.063 | citarinostat 0.031 | silmitasertib 0.023 | [5] -0.019 | [6] -0.104

VPS16 (UniProt Q9H269)
inactive: [1] 0.041 | [2] -0.156 | [3] -0.211 | [4] 0.007 | entinostat 0.084 | vorinostat 0.16 | citarinostat 0.189 | silmitasertib 0.009 | [5] 0.122 | [6] 0

VCX3B (UniProt Q9H321)
inactive: [1] -0.023 | [2] -0.01 | [3] 0.067 | [4] 0 | entinostat -0.017 | vorinostat -0.061 | citarinostat -0.039 | silmitasertib -0.072 | [5] -0.062 | [6] -0.058

WDR62 isoform 4 (UniProt O43379)
inactive: [1] -0.07 | [2] -0.099 | [3] -0.052 | [4] -0.038 | entinostat 0 | vorinostat 0.05 | citarinostat 0.054 | silmitasertib 0.073 | [5] 0.01 | [6] -0.07

WRB (UniProt O00258)
inactive: [1] 0.003 | [2] 0.019 | [3] -0.018 | [4] 0.006 | entinostat -0.011 | vorinostat -0.035 | citarinostat 0.034 | silmitasertib 0.028 | [5] 0.062 | [6] -0.042

VTA1 (UniProt Q9NP79)
inactive: [1] -0.029 | [2] 0.018 | [3] -0.185 | [4] -0.045 | entinostat 0.036 | vorinostat 0.036 | citarinostat 0.054 | silmitasertib 0.023 | [5] -0.076 | [6] 0.009

WASHC3 (UniProt Q9Y3C0)
inactive: [1] -0.037 | [2] 0.1 | [4] -0.029 | entinostat -0.011 | vorinostat -0.053 | citarinostat 0.016 | silmitasertib 0.075 | [5] -0.054 | [6] -0.005
active: [3] -0.271
